# Results reported in the supplement of paper PMC12819154, “High-throughput peptide-centric local stability assay extends protein–ligand identification to membrane proteins, tissues and bacteria” (Nature Structural & Molecular Biology, 2025).
# The chains behind the UniProt entries cited, without tags or fusion partners. Where a name states a change or a piece, a line headed by the entry shows the natural chain unless it says otherwise.
# UniProt Q8CAF4: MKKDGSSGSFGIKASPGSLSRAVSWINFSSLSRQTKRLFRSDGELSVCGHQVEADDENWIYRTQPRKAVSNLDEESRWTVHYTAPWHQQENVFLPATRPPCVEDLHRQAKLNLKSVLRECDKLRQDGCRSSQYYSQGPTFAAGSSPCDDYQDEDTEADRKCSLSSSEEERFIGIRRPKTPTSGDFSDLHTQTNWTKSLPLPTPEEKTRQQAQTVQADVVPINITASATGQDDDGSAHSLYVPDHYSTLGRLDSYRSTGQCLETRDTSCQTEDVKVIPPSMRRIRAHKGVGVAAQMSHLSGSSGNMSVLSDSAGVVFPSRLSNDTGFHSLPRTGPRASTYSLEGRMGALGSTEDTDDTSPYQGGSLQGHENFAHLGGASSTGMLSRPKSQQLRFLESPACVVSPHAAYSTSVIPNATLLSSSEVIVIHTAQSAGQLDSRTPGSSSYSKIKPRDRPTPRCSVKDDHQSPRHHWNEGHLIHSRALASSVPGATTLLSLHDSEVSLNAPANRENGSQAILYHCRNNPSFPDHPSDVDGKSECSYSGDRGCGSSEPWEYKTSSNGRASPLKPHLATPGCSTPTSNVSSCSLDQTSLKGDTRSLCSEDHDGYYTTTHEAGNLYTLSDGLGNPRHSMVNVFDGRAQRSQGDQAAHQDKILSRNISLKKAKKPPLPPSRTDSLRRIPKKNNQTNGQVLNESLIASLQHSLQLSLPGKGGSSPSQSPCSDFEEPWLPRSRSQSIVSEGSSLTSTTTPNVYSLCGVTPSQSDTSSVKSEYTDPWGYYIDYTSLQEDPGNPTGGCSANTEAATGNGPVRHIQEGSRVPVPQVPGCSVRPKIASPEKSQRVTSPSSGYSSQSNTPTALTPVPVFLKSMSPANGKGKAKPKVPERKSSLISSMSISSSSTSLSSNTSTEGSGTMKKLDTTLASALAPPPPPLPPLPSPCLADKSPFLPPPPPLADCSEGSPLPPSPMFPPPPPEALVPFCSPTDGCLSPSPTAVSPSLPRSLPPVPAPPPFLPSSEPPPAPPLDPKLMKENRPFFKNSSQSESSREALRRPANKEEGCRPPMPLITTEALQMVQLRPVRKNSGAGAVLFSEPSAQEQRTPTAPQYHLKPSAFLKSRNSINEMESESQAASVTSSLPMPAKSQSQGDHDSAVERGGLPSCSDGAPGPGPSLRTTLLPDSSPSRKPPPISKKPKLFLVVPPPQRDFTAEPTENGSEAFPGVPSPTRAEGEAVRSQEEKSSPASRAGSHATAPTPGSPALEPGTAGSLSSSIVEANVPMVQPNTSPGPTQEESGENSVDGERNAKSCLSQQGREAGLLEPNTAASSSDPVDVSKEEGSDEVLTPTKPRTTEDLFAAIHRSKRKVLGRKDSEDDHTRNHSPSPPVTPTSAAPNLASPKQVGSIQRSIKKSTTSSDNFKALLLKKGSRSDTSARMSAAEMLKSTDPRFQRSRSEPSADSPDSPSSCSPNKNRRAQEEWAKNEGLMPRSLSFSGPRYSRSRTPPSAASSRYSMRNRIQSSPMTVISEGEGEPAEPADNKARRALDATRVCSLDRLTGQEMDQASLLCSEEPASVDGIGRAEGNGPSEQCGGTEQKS
# UniProt Q8C5P5: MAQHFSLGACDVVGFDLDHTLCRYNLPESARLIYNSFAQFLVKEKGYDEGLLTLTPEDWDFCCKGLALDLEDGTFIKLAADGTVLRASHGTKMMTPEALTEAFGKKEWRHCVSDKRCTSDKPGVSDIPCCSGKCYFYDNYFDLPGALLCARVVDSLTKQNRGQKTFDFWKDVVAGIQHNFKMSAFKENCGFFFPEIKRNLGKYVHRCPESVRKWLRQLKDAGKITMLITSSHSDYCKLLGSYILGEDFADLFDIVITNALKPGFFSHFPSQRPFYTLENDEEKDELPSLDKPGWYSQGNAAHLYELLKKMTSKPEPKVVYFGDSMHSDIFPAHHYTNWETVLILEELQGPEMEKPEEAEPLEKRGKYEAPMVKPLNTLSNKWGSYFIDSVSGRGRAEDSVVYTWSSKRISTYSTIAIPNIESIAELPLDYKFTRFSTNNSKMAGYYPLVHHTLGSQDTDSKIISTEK
# UniProt Q8BYY4: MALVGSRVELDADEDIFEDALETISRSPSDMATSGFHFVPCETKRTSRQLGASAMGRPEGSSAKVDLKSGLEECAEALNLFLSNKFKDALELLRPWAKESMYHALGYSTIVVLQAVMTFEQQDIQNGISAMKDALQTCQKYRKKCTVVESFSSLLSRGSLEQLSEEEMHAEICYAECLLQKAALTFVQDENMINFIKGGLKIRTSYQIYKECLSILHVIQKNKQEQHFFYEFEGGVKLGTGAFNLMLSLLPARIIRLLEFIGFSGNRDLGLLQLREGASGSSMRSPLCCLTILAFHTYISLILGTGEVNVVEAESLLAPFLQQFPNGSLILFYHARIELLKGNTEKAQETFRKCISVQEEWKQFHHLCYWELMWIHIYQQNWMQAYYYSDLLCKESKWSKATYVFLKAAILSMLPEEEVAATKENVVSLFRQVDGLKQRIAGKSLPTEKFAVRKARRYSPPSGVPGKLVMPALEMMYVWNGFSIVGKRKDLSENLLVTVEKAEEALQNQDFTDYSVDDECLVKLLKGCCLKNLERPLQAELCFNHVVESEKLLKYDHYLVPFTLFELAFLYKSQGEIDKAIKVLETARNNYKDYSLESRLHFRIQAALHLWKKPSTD
# UniProt Q8C963: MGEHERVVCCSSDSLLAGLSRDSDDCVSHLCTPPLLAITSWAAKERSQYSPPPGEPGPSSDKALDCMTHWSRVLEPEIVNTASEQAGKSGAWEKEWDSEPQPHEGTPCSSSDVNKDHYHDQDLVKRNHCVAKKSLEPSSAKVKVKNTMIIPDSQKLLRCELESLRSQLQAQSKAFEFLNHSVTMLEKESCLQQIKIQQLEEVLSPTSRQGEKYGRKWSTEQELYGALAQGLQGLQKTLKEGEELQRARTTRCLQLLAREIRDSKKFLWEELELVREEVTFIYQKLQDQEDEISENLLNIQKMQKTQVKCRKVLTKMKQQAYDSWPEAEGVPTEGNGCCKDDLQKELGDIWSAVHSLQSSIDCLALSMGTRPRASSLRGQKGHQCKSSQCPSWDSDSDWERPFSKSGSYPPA
# UniProt Q8C1A9: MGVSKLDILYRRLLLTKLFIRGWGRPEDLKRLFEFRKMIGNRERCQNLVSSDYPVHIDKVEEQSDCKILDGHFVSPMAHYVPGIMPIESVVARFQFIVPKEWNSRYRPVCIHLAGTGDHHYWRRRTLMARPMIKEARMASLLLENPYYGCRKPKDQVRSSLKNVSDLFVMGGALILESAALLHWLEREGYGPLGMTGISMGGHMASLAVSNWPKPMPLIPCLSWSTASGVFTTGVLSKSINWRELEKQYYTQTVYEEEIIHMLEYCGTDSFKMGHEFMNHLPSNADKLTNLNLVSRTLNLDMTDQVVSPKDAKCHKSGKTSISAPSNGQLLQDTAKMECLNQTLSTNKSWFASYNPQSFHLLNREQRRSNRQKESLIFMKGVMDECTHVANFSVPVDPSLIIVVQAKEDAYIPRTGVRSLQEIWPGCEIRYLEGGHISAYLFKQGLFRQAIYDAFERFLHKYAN
# This is one part of the list. Small differences around the control level are noise.
# Compound: CN[C@@H]1C[C@H]2O[C@@](C)([C@@H]1OC)n1c3ccccc3c3c4c(c5c6ccccc6n2c5c31)C(=O)NC4 [staurosporine]
# Experiment: log2 fold change of tryptic peptide abundance, ligand vs vehicle (limited proteolysis) (log2 ratio); higher = more trypsin-susceptible (destabilized)
# Details: ligand concentration: 20 uM; sample: mouse liver crude lysate; replicate design: treated separately
row,Target,log2 fold change
1,"UniProt Q8CAF4 (peptide sequence: LSNDTGFHSLPR, peptide start residue: 320)",-0.267
2,"UniProt Q8C5P5 (peptide sequence: DVVAGIQHNFK, peptide start residue: 171)",0.651
3,"UniProt Q8BYY4 (peptide sequence: ECLSILHVIQK, peptide start residue: 211)",-0.788
4,"UniProt Q8C963 (peptide sequence: SQLQAQSK, peptide start residue: 166)",0.563
5,"UniProt Q8C1A9 (peptide sequence: QAIYDAFER, peptide start residue: 449)",-0.21
